{"source": "PubChem BioAssay AID504834", "about": "(National Center for Advancing Translational Sciences (NCATS), 2011)", "note": "About 22,000 (6.9%) of roughly 320,000 compounds were called active. Inconclusive means that the source gave no clear call. Such entries were picked first, then a sample of the others. Calls follow the shape of the dose curve; as a rule, active = well fitted inhibition curve with a large enough effect; inconclusive = small, poorly fitted or top-dose-only effect, or another doubt; inactive = no such curve, though single readings can be large or run the other way. Potencies beside an inconclusive call are fits to weak or partial responses and may not hold up. % is scaled to controls: 0 for no effect and ±100 for the full control effect; potency is read from the fitted curve at half-maximal effect.", "data": [{"assay": "Primary qHTS for delayed death inhibitors of the malarial parasite plastid, 96 hour incubation", "settings": "P. falciparum luciferase reporter growth; series mostly up to 28.7 µM; activity change, negative = inhibition: at the top concentration", "procedure,_shortened": "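P. falciparum expressing integrated firefly luciferase, in erythrocytes at 2% hematocrit, 0.05% parasitemia, incubated with compounds 96 h at 37 C, 5% CO2. Growth inhibition read as loss of luminescence; two-generation exposure targets delayed-death apicoplast inhibitors.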", "values": [{"smiles": "COc1ccccc1-n1cc(-c2ccc(Cl)cc2)[nH]c1=O", "Potency": "inconclusive: 13.1 µM [inhibitor, single point]"}, {"smiles": "CCC(C)OC(=O)C1=C(C)OC23OC(N)=C(C#N)C12C(=O)c1ccccc13", "note": "(stereo not drawn)", "Potency": "inconclusive: 0.522 µM [inhibitor, full curve, poor fit]"}, {"smiles": "O=C(CC1SC(=NCc2ccccc2)NC1=O)Nc1ccccc1", "note": "(stereo not drawn)", "Potency": "inconclusive: 18.5 µM [inhibitor, single point]"}, {"smiles": "CCCCN(CCCC)CC(O)CN(c1cc([N+](=O)[O-])ccc1OC)S(=O)(=O)c1ccccc1", "note": "(stereo not drawn)", "Potency": "inconclusive: 10.4 µM [inhibitor, single point]"}, {"smiles": "NC(=S)N/N=C/c1cccc(Br)c1", "Potency": "inconclusive: 9.28 µM [inhibitor, single point]"}, {"smiles": "O=c1c2ccccc2ncn1-c1cccc(Br)c1", "Potency": "active: 1.65 µM"}, {"smiles": "COC(=O)C1=C(c2ccc(OC(F)(F)F)cc2)C[C@@H]2CC[C@H]1N2C(=O)NCc1ccc(F)cc1", "Potency": "inconclusive: 7.38 µM [inhibitor, single point]"}, {"smiles": "COc1ccc(CCN(C)C(=O)C(CCSC)NC(=O)c2ccco2)cc1OC", "note": "(stereo not drawn)", "activity change, negative = inhibition": "inactive: -1.81%"}, {"smiles": "CCOc1ccc(N(CC(=O)O)S(=O)(=O)c2cccnc2)cc1", "Potency": "active: 14.7 µM"}, {"smiles": "Clc1ccc(/C=N/Nc2ncnc3nc[nH]c23)cc1", "Potency": "active: 11.7 µM"}, {"smiles": "CC(C)c1ccc2nc3sc(C(=O)N4CCc5ccccc5C4)c(N)c3cc2c1", "activity change, negative = inhibition": "inactive: 68.4%"}, {"smiles": "CC(=O)c1ccc(NC(=S)NCCCN2CCOCC2)cc1", "activity change, negative = inhibition": "inactive: 58.3%"}, {"smiles": "CCOc1cc(C(=S)N2CCOCC2)ccc1OS(=O)(=O)c1ccccc1[N+](=O)[O-]", "Potency": "active: 5.86 µM"}, {"smiles": "CCN(c1ccc(NC(=O)CCc2nc3sc4c(c3c(=O)[nH]2)CCCC4)cc1)C(C)C", "Potency": "inconclusive: 18.5 µM [inhibitor, single point]"}, {"smiles": "COc1ccccc1-n1cnc2cc(NCc3ccccc3O)ccc21", "Potency": "inconclusive: 18.5 µM [inhibitor, single point]"}, {"smiles": "COC(=O)CN1C(=O)C(O)(CC(=O)c2ccc(C)cc2)c2cc(Br)ccc21", "note": "(stereo not drawn)", "Potency": "inconclusive: 16.5 µM [inhibitor, partial curve, poor fit]"}, {"smiles": "c1ccc2c3c([nH]c2c1)C(C1CCCCC1)N(Cc1ncc[nH]1)CC3", "note": "(stereo not drawn)", "Potency": "inconclusive: 18.5 µM [inhibitor, single point]"}, {"smiles": "COC(=O)Cc1ccc(OC(=O)CCS(=O)(=O)c2ccc(C)cc2)cc1", "activity change, negative = inhibition": "inactive: -0.241%"}, {"smiles": "Oc1ccc(Nc2nc(-c3ccccc3)nc3ccccc23)cc1", "activity change, negative = inhibition": "inactive: -65.7%"}, {"smiles": "COc1cc(/C=C2\\C(=O)NC(=O)N(c3ccccc3)C2=O)cc(OC)c1OC", "Potency": "inconclusive: 20.8 µM [inhibitor, single point]"}, {"smiles": "N#CCCN1CCNCC1", "Potency": "inconclusive: 0.657 µM [inhibitor, full curve]"}, {"smiles": "O=C(CCCc1ccccc1)Nc1ccccc1C(F)(F)F", "Potency": "inconclusive: 10.4 µM [inhibitor, single point]"}, {"smiles": "CC(C)(C)c1ccc(C(=O)N/C(=C\\c2ccco2)C(=O)O)cc1", "activity change, negative = inhibition": "inactive: -28.5%"}, {"smiles": "COc1ccc(-c2noc(=O)[nH]2)cc1", "Potency": "inconclusive: 18.5 µM [inhibitor, single point]"}, {"smiles": "Cc1cc(C)c(NC(=O)CSc2nc3ccccc3c(=O)n2CCCN2CCOCC2)c(C)c1", "Potency": "inconclusive: 10.4 µM [inhibitor, single point]"}, {"smiles": "COc1ccc(/C=c2\\s/c(=C/C(=O)c3ccc(C)cc3)[nH]c2=O)c(OC)c1", "activity change, negative = inhibition": "inactive: 52.9%"}, {"smiles": "CC(=O)c1ccc(NC(=O)CCc2nnc3ccc(N4CCCC4)nn23)cc1", "activity change, negative = inhibition": "inactive: 14.5%"}, {"smiles": "COC(CN(C)C(=O)c1ccc(CS(=O)(=O)c2ccccc2C)o1)OC", "Potency": "inconclusive: 1.31 µM [inhibitor, full curve, poor fit]"}, {"smiles": "COc1ccc(S(=O)(=O)N2CCC(C(=O)N[C@@H](C)C(=O)NCc3cccc(OC)c3)CC2)cc1", "Potency": "inconclusive: 18.5 µM [inhibitor, single point]"}, {"smiles": "Cc1ccccc1NC(=O)CSc1nc(N)c2c3c(sc2n1)CSC(C)(C)C3", "Potency": "inconclusive: 14.7 µM [inhibitor, single point]"}, {"smiles": "COc1ccc(N2CCc3c(C)nc4c(OC)cc(OC)cc4c32)c(OC)c1", "Potency": "active: 14.7 µM"}, {"smiles": "CSCC(=O)N1CCCC(N2CCN(c3ccc(F)cc3)CC2)C1", "note": "(stereo not drawn)", "Potency": "inconclusive: 16.5 µM [inhibitor, partial curve, poor fit]"}, {"smiles": "CC(=O)Cn1ncc(N(C)Cc2ccccc2)c(Cl)c1=O", "activity change, negative = inhibition": "inactive: 92.1%"}, {"smiles": "Cc1ccc([N+](=O)[O-])c(OCCN2CCc3ccccc3C2)c1", "Potency": "inconclusive: 14.7 µM [inhibitor, single point]"}, {"smiles": "O=C(CCc1ccccn1)N1CCCC(N2CCN(c3cccc(C(F)(F)F)c3)CC2)C1", "note": "(stereo not drawn)", "Potency": "inconclusive: 11.7 µM [inhibitor, single point]"}, {"smiles": "c1ccc(-c2cc(NCCN3CCCCC3)c3ccccc3n2)cc1", "Potency": "inconclusive: 1.31 µM [inhibitor, partial curve, poor fit]"}, {"smiles": "O=C(CCNC(=O)c1ccco1)NC(Cc1c[nH]c2ccccc12)C(=O)O", "note": "(stereo not drawn)", "activity change, negative = inhibition": "inactive: 36.3%"}, {"smiles": "O=C(Nc1ccncc1)c1cccc(S(=O)(=O)N2CCc3ccccc32)c1", "Potency": "inconclusive: 5.22 µM [inhibitor, partial curve, poor fit]"}, {"smiles": "Cn1c(=O)oc2cc(S(=O)(=O)N3CCC(C(=O)Nc4ccc(OC(F)(F)F)cc4)CC3)ccc21", "activity change, negative = inhibition": "inactive: 37.5%"}, {"smiles": "Clc1ccc(-n2cc(-c3ccc(Br)cc3)[n+]3c2CCCCC3)cc1", "Potency": "inconclusive: 0.928 µM [inhibitor, full curve]"}, {"smiles": "CCCOc1cccc(/C=N/NC(=O)c2csc(C)c2C)c1", "Potency": "inconclusive: 13.1 µM [inhibitor, single point]"}, {"smiles": "Cc1c(C2(O)CCCCC2)[nH]c2cnccc12", "Potency": "inconclusive: 3.7 µM [inhibitor, partial curve, poor fit]"}, {"smiles": "O=C(NCc1ccccc1)N1CCC(Cc2ccccc2)CC1", "activity change, negative = inhibition": "inactive: 251%"}, {"smiles": "COc1ccc(NC(=O)CSc2nc3c([nH]c4ccccc43)c(=O)n2C)c(OC)c1", "Potency": "inconclusive: 2.33 µM [inhibitor, partial curve, poor fit]"}, {"smiles": "CC1CC(C)CN(C(=O)COC(=O)c2cc([N+](=O)[O-])ccc2N2CCOCC2)C1", "note": "(stereo not drawn)", "Potency": "inconclusive: 18.5 µM [inhibitor, single point]"}, {"smiles": "C[C@@]12CCC=C[C@H]1[C@H](c1ccc(/C=C/c3ccccc3)cc1F)N(Cc1ccccc1)C2=O", "Potency": "inconclusive: 11.7 µM [inhibitor, partial curve, poor fit]"}, {"smiles": "CSc1ccccc1NC(=O)c1cc(C2CC2)on1", "Potency": "active: 7.38 µM"}, {"smiles": "O=C(O)CCn1cc(/C=N/O)c(-c2cccc([N+](=O)[O-])c2)n1", "activity change, negative = inhibition": "inactive: 5.18%"}, {"smiles": "CC(C)n1c(/C=C/[C@H](O)C[C@H](O)CC(=O)O)c(-c2ccc(F)cc2)c2ccccc21", "Potency": "inconclusive: 7.57 µM [inhibitor, partial curve, poor fit]"}, {"smiles": "S=c1nccc(-c2ccc3c(c2)CCO3)[nH]1", "activity change, negative = inhibition": "inactive: -9.34%"}, {"smiles": "CC(C)CC(NC(=O)CCC(=O)OCC(=O)[C@@]1(O)CCC2[C@@H]3CCC4=CC(=O)C=C[C@]4(C)C3[C@@H](O)C[C@@]21C)C(=O)O", "note": "(stereo partly drawn)", "Potency": "inconclusive: 9.28 µM [inhibitor, partial curve, poor fit]"}, {"smiles": "O=C(Nc1cccc(O)c1)C(Cc1ccccc1)N1C(=O)c2cccc3cccc(c23)C1=O", "note": "(stereo not drawn)", "Potency": "inconclusive: 13.1 µM [inhibitor, single point]"}, {"smiles": "CC(=O)c1cccc(S(=O)(=O)N2CCC(c3nc4ccccc4[nH]3)CC2)c1", "activity change, negative = inhibition": "inactive: 7.04%"}, {"smiles": "CC(CNc1ccccc1O)C(=O)O", "note": "(stereo not drawn)", "activity change, negative = inhibition": "inactive: -4.38%"}, {"smiles": "Nc1c(N(Cc2ccco2)C(=O)COc2ccccc2F)c(=O)[nH]c(=O)n1Cc1ccccc1", "activity change, negative = inhibition": "inactive: -9.54%"}, {"smiles": "Cc1occc1C(=O)NNC(=S)Nc1cccc([N+](=O)[O-])c1", "activity change, negative = inhibition": "inactive: 38.9%"}, {"smiles": "Cn1c(COc2ccc(Br)cc2)nnc1SC1CCc2ccccc2C1=O", "note": "(stereo not drawn)", "Potency": "inconclusive: 18.5 µM [inhibitor, partial curve, poor fit]"}, {"smiles": "COc1cc(N(C)C)c([N+](=O)[O-])cc1C(=O)N1CCOCC1", "Potency": "inconclusive: 20.8 µM [inhibitor, partial curve, poor fit]"}, {"smiles": "CC(C(=O)Nc1cccc([N+](=O)[O-])c1)n1nnc2ccccc21", "note": "(stereo not drawn)", "Potency": "inconclusive: 0.0029 µM [inhibitor, full curve, poor fit]"}, {"smiles": "COc1ccc(Br)cc1/C=N/NC(=O)c1ccc(COc2ccc3c(c2)CCC3)o1", "activity change, negative = inhibition": "inactive: 48.2%"}, {"smiles": "C=CCNC(=O)c1ccc(-c2nc(-c3ccccc3)cs2)cc1", "Potency": "inconclusive: 11.7 µM [inhibitor, single point]"}, {"smiles": "Cc1c(Cc2ccccc2)c(=O)oc2cc(OCC(=O)N3CCC(C(N)=O)CC3)ccc12", "Potency": "inconclusive: 5.22 µM [inhibitor, partial curve, poor fit]"}, {"smiles": "CCCn1c(C(O)c2ccc(OC)cc2)nc2ccccc21", "note": "(stereo not drawn)", "Potency": "inconclusive: 18.5 µM [inhibitor, single point]"}, {"smiles": "Cc1ccccc1-c1n[nH]c(=S)n1C", "activity change, negative = inhibition": "inactive: 19.3% [at 5.75 µM]"}, {"smiles": "COC(=O)c1cc(S(=O)(=O)Nc2cccc(OC)c2)cn1C", "Potency": "inconclusive: 0.0165 µM [inhibitor, full curve, poor fit]"}, {"smiles": "COc1cccc(-c2coc3c(C)c4oc(=O)c(CCC(=O)O)c(C)c4cc23)c1", "Potency": "inconclusive: 5.22 µM [inhibitor, partial curve, poor fit]"}, {"smiles": "CCN(CC)S(=O)(=O)c1ccc(C(=O)NCc2n[nH]c(=S)n2-c2ccc(Cl)c(Cl)c2)cc1", "Potency": "inconclusive: 3.29 µM [inhibitor, single point]"}, {"smiles": "COc1ccc(CN(CCC(c2ccccc2)C2CCOC(C)(C)C2)C(C)=O)cc1", "note": "(stereo not drawn)", "activity change, negative = inhibition": "inactive: -1.37%"}]}]}
